Binding data for 2 molecules are collected here from article PMC5997449.

Protein sequences, listed by entry. Tags and fused reporters are not part of them. Lines headed by an entry give the natural chain unless they say otherwise; changes in a name come on top.
UniProt A2AGH6: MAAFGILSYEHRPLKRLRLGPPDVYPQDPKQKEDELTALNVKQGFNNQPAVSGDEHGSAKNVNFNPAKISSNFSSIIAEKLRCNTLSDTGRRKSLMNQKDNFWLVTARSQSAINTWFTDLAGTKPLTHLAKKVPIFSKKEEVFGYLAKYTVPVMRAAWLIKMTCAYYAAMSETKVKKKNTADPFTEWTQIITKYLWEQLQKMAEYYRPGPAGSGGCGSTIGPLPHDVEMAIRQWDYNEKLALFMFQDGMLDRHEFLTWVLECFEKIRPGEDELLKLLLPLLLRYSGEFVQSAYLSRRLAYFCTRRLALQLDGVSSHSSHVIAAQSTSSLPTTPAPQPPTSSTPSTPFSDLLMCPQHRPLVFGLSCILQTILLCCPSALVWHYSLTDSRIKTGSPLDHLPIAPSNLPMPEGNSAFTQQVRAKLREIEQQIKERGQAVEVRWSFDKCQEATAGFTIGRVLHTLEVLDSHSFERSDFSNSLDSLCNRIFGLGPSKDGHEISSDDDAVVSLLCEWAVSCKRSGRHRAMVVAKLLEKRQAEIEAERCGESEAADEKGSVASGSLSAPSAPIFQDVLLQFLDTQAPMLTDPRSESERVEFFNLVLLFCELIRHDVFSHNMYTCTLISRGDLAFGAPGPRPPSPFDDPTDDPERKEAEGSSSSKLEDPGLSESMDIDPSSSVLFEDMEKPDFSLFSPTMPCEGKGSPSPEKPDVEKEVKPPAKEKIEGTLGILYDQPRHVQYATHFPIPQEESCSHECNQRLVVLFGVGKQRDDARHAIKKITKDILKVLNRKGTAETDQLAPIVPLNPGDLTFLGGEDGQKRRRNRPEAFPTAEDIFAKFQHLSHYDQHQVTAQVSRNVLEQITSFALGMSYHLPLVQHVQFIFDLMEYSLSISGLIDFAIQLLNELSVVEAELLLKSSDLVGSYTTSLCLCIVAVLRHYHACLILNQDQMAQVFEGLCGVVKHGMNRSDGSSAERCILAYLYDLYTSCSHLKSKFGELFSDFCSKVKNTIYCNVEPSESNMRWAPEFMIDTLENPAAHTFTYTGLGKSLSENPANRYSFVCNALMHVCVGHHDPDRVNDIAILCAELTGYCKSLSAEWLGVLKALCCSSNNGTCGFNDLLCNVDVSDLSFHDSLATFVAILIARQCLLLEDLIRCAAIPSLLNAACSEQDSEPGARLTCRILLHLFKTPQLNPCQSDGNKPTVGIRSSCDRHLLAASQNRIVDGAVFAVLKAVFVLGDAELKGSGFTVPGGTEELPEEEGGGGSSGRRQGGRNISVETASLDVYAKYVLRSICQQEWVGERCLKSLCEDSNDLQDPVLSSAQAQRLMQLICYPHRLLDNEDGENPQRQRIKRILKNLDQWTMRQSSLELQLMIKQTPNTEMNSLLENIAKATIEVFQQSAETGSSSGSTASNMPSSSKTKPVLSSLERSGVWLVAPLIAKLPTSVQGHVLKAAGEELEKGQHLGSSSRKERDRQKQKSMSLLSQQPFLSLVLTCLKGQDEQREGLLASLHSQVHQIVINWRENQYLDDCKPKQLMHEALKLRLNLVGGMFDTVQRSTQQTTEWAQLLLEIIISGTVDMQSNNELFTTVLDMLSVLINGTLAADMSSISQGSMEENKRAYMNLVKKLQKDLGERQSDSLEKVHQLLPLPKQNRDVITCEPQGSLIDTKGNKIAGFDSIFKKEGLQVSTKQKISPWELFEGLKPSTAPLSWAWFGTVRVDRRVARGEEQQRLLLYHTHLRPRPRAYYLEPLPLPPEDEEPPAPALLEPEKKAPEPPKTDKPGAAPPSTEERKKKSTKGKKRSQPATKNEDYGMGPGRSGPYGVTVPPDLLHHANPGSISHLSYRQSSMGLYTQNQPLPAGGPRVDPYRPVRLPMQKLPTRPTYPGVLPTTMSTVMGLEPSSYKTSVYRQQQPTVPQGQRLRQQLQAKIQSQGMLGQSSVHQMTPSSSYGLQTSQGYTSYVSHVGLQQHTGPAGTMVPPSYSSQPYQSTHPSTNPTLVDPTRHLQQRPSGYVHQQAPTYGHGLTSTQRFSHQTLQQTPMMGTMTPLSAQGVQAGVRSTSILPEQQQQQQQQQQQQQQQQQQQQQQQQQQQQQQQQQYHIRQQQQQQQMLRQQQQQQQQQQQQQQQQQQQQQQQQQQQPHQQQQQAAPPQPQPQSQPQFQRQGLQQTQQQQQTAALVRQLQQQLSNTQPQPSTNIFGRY
UniProt Q5DTM8: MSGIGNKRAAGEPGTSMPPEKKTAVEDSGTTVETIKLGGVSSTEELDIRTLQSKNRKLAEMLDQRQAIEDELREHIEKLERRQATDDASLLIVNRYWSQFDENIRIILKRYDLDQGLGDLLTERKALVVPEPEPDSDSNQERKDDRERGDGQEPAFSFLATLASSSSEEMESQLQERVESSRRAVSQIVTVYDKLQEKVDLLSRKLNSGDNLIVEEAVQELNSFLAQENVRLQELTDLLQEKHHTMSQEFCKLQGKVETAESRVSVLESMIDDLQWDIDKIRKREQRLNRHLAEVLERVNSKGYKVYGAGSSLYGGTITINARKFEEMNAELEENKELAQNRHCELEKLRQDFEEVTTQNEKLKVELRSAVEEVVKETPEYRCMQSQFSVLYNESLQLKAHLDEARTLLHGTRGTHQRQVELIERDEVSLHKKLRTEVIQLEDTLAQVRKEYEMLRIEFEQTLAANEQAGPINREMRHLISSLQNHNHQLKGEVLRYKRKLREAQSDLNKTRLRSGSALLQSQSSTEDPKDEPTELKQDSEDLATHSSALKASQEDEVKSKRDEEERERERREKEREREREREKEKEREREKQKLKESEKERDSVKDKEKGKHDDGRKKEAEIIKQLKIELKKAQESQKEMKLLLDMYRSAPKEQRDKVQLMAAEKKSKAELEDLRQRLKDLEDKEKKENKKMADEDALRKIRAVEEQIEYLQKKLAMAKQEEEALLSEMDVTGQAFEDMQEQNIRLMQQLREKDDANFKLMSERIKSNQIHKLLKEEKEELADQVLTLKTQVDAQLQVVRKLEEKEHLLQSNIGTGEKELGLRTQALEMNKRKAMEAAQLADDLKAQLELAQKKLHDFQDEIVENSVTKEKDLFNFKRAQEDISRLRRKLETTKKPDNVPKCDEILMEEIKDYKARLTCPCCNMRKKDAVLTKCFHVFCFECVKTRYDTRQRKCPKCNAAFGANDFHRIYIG

Results are given in words; binding and its absence hold for the method and conditions named. Binding seen in cells or lysates may run through a third protein. Tags and fused reporters may be left off the sequences shown.

In assay [1] the target is T1, FS2-FBXL19 (epitope-tagged wild-type FBXL19, stable mouse ES cell line) (mouse) (UniProt Q6PB97).
T1 sequence: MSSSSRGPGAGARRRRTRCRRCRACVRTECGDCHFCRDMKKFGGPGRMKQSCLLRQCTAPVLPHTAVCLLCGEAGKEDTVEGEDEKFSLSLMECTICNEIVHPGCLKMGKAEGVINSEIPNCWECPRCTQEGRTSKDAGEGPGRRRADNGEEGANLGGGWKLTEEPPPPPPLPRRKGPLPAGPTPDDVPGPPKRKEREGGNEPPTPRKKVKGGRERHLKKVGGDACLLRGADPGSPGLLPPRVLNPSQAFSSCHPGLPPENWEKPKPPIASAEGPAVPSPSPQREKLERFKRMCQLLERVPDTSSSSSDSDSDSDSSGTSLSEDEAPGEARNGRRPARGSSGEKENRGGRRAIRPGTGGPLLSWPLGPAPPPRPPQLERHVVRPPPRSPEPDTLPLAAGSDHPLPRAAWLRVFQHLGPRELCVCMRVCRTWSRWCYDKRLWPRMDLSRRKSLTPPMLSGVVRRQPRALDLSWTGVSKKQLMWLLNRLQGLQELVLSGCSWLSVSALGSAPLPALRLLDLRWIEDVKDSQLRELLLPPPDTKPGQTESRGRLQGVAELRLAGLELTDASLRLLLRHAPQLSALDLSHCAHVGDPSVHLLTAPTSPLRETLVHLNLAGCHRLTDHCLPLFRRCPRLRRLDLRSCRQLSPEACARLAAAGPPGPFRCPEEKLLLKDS
The assay is described as follows: pull-down; FS2-FBXL19 and empty vector control purifications (StrepTactin resin) from ES cell nuclear extract, benzonase, western blot.

The target of assay [2] is T2, CDK8 (mouse (endogenous in ES cells)) (UniProt Q8R3L8).
T2 sequence: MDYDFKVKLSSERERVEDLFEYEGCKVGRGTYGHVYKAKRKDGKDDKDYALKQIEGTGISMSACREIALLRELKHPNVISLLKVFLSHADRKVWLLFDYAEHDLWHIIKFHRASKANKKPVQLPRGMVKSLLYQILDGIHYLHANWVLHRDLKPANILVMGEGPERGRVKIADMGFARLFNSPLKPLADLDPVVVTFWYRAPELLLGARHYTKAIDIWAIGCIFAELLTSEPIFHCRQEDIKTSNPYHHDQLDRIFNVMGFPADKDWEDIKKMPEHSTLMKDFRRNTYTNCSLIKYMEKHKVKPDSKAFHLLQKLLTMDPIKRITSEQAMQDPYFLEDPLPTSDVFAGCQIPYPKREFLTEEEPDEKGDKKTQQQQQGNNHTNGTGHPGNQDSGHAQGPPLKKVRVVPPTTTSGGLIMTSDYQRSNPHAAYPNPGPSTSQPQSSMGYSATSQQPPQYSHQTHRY
The assay is described as follows: co-IP; endogenous IP of FBXL19, CDK8 and MED12 from 600 ug nuclear extract of T7 knock-in ES cells in BC150 (150 mM KCl), 25U benzonase, protein A agarose, 4 C; control IP anti-HA; western blot.

The target of assay [3] is MED12 (mouse (endogenous in ES cells)) (UniProt A2AGH6). Described as above.

Turning to “RNF20/40 E3 ubiquitin ligase (from UniProt Q5DTM8 1-973; Q3U319 1-1001) (complex)”, the binding entry in assay [1] was “no binding”.

B1: Endogenous FBXL19 tagged with 3xT7-2xStrepII by knock-in (T7-FBXL19) (protein, UniProt Q6PB97 1-674)
chain: T1 sequence
As for B1, the binding result in assay [2] and in assay [3] was “no binding” each time.
